Test results reported in PMC11101681.
Where two headings read alike, the source gives them in different places. No constants are given. Whether binding was seen depends on the method and setting. In cells and extracts the contact can be indirect. Some entries that bind do so weakly or less than the wild type. For some of these results: Sequences can lack the tags named with a protein. Blank lines part the entries; values can stand above or below the molecule they belong to.

Sequences of proteins named here, by UniProt entry; tags and fusion partners are left off.
UniProt Q9NVP2: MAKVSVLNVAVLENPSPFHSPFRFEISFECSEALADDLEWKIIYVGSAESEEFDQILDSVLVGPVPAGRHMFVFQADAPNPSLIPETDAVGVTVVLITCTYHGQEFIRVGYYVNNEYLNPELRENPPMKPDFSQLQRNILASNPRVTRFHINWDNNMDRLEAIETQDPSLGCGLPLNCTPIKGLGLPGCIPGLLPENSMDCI
UniProt P39687: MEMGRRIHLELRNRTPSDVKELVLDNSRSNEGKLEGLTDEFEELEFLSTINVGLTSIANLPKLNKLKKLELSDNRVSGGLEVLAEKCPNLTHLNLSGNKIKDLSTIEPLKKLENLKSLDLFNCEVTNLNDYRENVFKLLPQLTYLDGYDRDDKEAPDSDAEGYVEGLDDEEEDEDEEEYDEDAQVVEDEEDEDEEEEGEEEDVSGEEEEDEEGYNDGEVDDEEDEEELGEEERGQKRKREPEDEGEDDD

How the values were obtained:
Assay in all cases: proximity ligation; PLA kit on fixed, permeabilised 293FT cells expressing the bait (doxycycline 48 h); antibody pairs Myc or FLAG with ANP32A or ZPR1; untreated or 500 uM hydroxyurea for 24 h; signals per cell counted
[1] = target: T1, GINS2 (Flag-BIOID2-GINS2) (human (cDNA library of U2OS cells)) (UniProt Q9Y248)
T1 sequence: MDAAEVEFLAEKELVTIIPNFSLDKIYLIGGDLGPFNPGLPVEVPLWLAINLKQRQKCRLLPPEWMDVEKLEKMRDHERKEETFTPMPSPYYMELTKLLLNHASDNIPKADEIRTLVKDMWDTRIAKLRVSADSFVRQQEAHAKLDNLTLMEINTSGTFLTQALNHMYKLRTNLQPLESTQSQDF

[2] = target: T2, POLE4 (Flag-BIOID2-POLE4) (human (cDNA library of U2OS cells)) (UniProt Q9NR33)
T2 sequence: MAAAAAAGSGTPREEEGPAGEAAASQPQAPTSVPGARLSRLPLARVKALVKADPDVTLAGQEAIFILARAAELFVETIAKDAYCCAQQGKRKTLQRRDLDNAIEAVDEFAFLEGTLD

[3] = target: T2, POLE4 (Flag-BIOID2-POLE4) (human (cDNA library of U2OS cells)); remark: listed apart in the source
[4] = target: ASF1B (3xMyc-BioID2-ASF1B) (human (cDNA library of U2OS cells)) (UniProt Q9NVP2)

binding [1]: binds
binding [2]: binds
Molecule: Acidic leucine-rich nuclear phosphoprotein 32 family member A (ANP32A) (from UniProt P39687 1-249)

binding [3]: binds
binding [4]: binds
B1: ZPR1 (protein, UniProt O75312 1-459)
chain: MAASGAVEPGPPGAAVAPSPAPAPPPAPDHLFRPISAEDEEQQPTEIESLCMNCYCNGMTRLLLTKIPFFREIIVSSFSCEHCGWNNTEIQSAGRIQDQGVRYTLSVRALEDMNREVVKTDSAATRIPELDFEIPAFSQKGALTTVEGLITRAISGLEQDQPARRANKDATAERIDEFIVKLKELKQVASPFTLIIDDPSGNSFVENPHAPQKDDALVITHYNRTRQQEEMLGLQEEAPAEKPEEEDLRNEVLQFSTNCPECNAPAQTNMKLVQIPHFKEVIIMATNCENCGHRTNEVKSGGAVEPLGTRITLHITDASDMTRDLLKSETCSVEIPELEFELGMAVLGGKFTTLEGLLKDIRELVTKNPFTLGDSSNPGQTERLQEFSQKMDQIIEGNMKAHFIMDDPAGNSYLQNVYAPEDDPEMKVERYKRTFDQNEELGLNDMKTEGYEAGLAPQR
